The values below come from patent US20200270352A1.

Chains of the proteins cited; added tags and fusions are not shown. Lines headed by an entry give the natural chain unless they say otherwise; changes in a name come on top.
UniProt P08069: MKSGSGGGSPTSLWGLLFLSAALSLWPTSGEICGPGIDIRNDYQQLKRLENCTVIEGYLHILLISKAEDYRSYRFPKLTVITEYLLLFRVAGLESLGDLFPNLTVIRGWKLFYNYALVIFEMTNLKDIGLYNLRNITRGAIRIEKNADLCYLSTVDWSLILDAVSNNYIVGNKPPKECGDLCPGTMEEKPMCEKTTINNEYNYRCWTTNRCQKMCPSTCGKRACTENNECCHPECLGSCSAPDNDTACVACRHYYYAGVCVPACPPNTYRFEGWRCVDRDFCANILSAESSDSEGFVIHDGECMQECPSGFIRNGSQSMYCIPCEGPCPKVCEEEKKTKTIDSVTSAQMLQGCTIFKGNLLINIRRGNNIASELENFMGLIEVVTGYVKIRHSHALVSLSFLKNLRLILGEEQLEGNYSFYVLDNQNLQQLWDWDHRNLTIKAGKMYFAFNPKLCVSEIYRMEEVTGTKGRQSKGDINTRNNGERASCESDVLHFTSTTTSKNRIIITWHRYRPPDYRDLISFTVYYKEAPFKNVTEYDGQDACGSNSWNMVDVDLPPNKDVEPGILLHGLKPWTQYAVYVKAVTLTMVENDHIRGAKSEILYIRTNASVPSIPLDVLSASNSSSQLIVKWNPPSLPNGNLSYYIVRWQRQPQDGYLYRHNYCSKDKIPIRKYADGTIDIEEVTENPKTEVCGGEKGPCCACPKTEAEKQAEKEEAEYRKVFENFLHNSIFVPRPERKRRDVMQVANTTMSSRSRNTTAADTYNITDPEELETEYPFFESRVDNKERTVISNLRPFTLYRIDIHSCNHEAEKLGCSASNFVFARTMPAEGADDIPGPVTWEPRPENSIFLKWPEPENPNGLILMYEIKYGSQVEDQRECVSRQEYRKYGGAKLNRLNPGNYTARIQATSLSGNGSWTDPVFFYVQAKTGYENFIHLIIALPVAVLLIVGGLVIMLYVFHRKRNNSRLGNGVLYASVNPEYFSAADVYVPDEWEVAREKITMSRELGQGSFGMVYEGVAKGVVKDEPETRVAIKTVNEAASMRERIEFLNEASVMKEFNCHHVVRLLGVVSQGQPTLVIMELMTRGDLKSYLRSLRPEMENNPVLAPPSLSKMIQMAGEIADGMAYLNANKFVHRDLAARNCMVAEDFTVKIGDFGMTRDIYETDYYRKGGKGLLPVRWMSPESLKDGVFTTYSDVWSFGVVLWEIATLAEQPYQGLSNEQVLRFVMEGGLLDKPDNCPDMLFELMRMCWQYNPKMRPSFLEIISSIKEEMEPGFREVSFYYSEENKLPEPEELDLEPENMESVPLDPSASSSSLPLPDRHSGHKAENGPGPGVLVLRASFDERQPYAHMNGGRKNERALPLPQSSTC

Test [1] has as its target human IGF-1R, native, on cells (MCF-7, hIGF-1R transfected cells, primary normal human cells) (human) (UniProt P08069). The test can be described thus: FACS titration on MCF-7.
The target is the same in test [2]. The test can be described thus: FACS on MCF-7.

No constants are given. Whether binding was seen depends on the method and setting. Some results given as binding are weak or reduced against the parent protein; the word gives no strength.

B1: humanized antibody hz208F2 VH3/VL3 (hz208F2 H026/L024) (antibody, human IgG1, kappa, V domains shown)
VH: QVQLVQSGAEVKKPGASVKMSCKASGYTFTSYYIYWVKQAPGQGLEWLGWIWPGDGSTKYNEKFQGRVTLTADKSSNTAYMFLSSLRSEDTAVYFCASPMITPNYAMDYWGQGTLVTVSS
VL: DIQMTQSPSSLSASVGDRVTISCRASQDISKYLNWYQQKPGKAPKLLIYYTSRLHSGVPSRFSGRGSGTDYSLTISNLQPEDFATYFCQQGSTLPYTFGGGTKVEIKR
Regarding B1, the binding result in test [1] and in test [2] was “binds” each time.
